Five molecules from patent US20230348540A1, “Viral multimeric peptide constructs for targeting PDZ domains” (University of Copenhagen, priority 2020, published 2023) can be followed below.

Chains of the proteins cited; added tags and fusions are not shown. Residues count along the entry.
UniProt Q9Z0J4: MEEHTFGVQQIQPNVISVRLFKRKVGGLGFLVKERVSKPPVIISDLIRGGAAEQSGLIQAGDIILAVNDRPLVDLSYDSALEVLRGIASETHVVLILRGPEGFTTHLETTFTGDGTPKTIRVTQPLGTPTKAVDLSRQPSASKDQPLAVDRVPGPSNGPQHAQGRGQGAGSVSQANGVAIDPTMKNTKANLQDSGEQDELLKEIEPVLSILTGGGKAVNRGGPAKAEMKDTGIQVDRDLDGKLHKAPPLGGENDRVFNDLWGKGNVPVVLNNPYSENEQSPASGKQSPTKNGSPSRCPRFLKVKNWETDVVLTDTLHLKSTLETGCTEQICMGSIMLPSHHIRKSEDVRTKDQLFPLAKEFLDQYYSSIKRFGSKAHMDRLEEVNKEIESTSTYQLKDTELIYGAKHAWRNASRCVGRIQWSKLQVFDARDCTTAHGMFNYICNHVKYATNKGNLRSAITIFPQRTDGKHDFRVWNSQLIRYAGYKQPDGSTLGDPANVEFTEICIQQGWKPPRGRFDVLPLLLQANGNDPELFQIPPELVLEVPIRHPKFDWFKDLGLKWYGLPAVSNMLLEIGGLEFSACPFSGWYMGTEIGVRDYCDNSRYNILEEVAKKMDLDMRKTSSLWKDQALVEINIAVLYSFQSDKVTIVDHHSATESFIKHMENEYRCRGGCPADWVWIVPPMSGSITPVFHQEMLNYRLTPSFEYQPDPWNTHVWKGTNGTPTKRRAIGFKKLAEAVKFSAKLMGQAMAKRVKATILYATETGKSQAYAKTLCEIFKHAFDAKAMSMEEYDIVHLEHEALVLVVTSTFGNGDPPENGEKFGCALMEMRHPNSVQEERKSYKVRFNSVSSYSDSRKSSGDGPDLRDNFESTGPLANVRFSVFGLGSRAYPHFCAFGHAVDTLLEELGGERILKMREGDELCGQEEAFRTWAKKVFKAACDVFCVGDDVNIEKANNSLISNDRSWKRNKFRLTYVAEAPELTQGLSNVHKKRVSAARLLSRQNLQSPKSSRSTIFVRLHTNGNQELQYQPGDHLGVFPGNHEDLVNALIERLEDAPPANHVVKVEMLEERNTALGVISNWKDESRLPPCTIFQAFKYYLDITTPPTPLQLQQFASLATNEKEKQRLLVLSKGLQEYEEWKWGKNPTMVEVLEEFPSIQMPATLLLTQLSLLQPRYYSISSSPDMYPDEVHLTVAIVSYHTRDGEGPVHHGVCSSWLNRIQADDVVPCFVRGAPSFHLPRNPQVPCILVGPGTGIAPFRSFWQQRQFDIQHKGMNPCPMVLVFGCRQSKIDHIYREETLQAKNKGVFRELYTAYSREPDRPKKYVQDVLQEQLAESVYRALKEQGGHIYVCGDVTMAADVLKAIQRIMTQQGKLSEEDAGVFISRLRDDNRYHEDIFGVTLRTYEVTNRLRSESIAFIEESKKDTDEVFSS
UniProt Q62108: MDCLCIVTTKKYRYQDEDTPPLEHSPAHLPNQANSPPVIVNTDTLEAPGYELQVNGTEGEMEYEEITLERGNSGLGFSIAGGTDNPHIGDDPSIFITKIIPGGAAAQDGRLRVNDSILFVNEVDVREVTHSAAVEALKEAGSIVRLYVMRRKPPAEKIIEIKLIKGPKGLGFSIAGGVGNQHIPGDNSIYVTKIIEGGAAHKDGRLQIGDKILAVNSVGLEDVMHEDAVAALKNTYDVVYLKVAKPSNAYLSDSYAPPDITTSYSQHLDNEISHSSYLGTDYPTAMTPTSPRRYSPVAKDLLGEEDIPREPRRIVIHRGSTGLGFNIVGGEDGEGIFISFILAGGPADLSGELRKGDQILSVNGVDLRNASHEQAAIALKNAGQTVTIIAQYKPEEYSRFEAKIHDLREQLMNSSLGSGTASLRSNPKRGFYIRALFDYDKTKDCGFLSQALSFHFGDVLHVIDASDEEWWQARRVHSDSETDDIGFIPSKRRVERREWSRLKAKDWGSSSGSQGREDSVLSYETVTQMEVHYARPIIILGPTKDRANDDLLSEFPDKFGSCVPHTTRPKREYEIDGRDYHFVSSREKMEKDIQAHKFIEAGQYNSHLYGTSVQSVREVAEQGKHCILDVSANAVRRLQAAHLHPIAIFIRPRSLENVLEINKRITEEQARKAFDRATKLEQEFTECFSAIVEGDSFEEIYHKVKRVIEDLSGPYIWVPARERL
UniProt P78352, residues 61-249: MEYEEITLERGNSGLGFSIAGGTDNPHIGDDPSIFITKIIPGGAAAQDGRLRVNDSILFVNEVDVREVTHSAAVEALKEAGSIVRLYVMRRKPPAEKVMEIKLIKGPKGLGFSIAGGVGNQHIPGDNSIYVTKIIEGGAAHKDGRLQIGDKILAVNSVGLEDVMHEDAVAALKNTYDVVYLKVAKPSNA
UniProt Q62083: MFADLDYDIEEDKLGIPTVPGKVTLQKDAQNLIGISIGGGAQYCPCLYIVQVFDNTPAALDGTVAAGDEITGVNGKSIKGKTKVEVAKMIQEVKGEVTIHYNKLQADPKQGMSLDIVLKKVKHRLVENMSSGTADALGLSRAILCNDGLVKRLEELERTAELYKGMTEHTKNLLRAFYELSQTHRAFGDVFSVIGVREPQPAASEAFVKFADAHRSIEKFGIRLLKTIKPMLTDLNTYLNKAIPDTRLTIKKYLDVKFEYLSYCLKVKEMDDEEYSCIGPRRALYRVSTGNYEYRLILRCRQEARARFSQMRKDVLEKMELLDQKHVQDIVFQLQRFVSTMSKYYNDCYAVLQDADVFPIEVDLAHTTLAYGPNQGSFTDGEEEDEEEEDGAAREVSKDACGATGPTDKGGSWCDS

No constants are given. Whether binding was seen depends on the method and setting. For part of these data: Binding seen in cells or lysates may run through a third protein. Some binding calls cover weakened binding; strength is not graded here.

The target in assay [1] is nNOS protein in mouse spinal cord lysate (mouse) (UniProt Q9Z0J4). Put plainly: pull-down with biotinylated peptide on streptavidin beads from mouse spinal cord lysate, western blot. In general terms: A western blot detects proteins with antibodies after separation by electrophoresis.
Assay [2] shares this target. Put plainly: streptavidin bead pull-down from mouse spinal cord lysate, Western blot.
The target of assay [3] is PSD-95 protein in mouse spinal cord lysate (mouse) (UniProt Q62108). Put plainly: pull-down with biotinylated peptide on streptavidin beads from mouse spinal cord lysate, western blot.
The target is the same in assay [4]. Put plainly: streptavidin bead pull-down from mouse spinal cord lysate, Western blot.
Assay [5] has as its target PSD-95 PDZ1-2 (UniProt P78352). Put plainly: FP competition.
The target in assay [6] is PICK1 protein in mouse spinal cord lysate (mouse) (UniProt Q62083). Put plainly: streptavidin bead pull-down from mouse spinal cord lysate, Western blot.

B1: GCN4p1(ILI)-GS4-WGESV (peptide)
peptide: RMKQIEDKLEEILSKLYHIENELARIKKLLGGGGSWGESV
modifications: N-terminal biotin joined through 6-aminohexanoic acid (Ahx)
For B1, the binding result in assay [1] and in assay [2] was “binds” in each case.

B2: CC-Hex2-GS4-IETDV (peptide)
peptide: GEIAKSLKEIAKSLKEIAWSLKEIAKSLKGGGGSIETDV
modifications: N-terminal biotin joined through 6-aminohexanoic acid (Ahx)
As to B2, the binding result in assay [3], in assay [4] and in assay [5] was “binds” throughout.

B3: CC-Hex2-GS4-HWLKV (peptide)
peptide: GEIAKSLKEIAKSLKEIAWSLKEIAKSLKGGGGSHWLKV
modifications: N-terminal biotin joined through 6-aminohexanoic acid (Ahx)
In the case of B3, the binding result in assay [6] was “binds”.

B4: CC-Hex2-GS4-WGESV (peptide)
peptide: GEIAKSLKEIAKSLKEIAWSLKEIAKSLKGGGGSWGESV
modifications: N-terminal biotin joined through 6-aminohexanoic acid (Ahx)
For the molecule B4, the binding entry in assay [1] and in assay [2] was “binds” throughout.

B5: CC-Hex2-GS4-RRTTPV (peptide)
peptide: GEIAKSLKEIAKSLKEIAWSLKEIAKSLKGGGGSRRTTPV
modifications: N-terminal biotin joined through 6-aminohexanoic acid (Ahx)
For the molecule B5, the binding result in assay [5] is given as “binds”.
